Results from PMC4814890.
Results are given in words; binding and its absence hold for the method and conditions named. In cells and extracts the contact can be indirect. Some entries that bind do so weakly or less than the wild type.

Protein sequences, listed by entry. Tags and fused reporters are not part of them. Lines headed by an entry give the natural chain unless they say otherwise; changes in a name come on top.
UniProt P15208: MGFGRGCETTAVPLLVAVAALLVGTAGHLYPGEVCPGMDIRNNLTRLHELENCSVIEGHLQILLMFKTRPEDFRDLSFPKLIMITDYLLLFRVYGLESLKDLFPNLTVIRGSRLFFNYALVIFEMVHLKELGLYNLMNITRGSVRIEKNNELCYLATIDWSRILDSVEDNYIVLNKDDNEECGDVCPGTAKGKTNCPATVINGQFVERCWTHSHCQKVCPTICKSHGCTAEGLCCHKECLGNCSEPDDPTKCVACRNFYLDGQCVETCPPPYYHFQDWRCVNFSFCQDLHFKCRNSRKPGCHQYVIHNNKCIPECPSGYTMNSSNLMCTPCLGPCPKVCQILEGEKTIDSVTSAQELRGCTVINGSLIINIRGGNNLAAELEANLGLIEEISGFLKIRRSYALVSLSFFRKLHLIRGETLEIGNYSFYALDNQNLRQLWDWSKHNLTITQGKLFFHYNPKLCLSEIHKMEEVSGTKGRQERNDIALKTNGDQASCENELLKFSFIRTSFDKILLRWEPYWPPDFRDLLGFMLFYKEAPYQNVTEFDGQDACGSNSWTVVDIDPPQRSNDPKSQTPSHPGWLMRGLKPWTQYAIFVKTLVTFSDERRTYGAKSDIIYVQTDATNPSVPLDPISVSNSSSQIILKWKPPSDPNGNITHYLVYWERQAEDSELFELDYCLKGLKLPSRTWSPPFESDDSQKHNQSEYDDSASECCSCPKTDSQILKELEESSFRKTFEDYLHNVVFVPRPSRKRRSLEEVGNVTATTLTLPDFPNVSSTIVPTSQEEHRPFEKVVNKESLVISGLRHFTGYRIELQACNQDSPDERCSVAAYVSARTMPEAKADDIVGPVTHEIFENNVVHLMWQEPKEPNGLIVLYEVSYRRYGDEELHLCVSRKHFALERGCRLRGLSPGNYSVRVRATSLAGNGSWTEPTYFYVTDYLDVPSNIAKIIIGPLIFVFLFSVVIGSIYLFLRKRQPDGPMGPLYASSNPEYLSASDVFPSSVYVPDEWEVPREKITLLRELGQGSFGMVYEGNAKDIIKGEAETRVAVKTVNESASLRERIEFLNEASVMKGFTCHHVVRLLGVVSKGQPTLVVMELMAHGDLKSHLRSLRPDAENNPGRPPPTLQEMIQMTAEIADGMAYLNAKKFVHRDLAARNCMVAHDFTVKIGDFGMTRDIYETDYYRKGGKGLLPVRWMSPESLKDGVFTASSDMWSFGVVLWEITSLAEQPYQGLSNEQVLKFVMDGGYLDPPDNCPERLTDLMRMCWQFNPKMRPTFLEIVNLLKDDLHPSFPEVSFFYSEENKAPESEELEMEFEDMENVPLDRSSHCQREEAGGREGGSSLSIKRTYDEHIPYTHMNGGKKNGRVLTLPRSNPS

Molecular target: insulin receptor (mouse (endogenous in HL-1)) (UniProt P15208)
Assay: co-IP; IR immunoprecipitated with an antibody against the beta chain of IR from HL-1 cells challenged with or without 200 nmol/L insulin for 5 min; immunoblotted for CAV1, CAV3 and IR β; mouse serum as immunoprecipitation control

| binding | Binder |
| --- | --- |
| binds | caveolin-3 (protein, UniProt P51637 1-151) MMTEEHTDLEARIIKDIHCKEIDLVNRDPKNINEDIVKVDFEDVIAEPEGTYSFDGVWKVSFTTFTVSKYWCYRLLSTLLGVPLALLWGFLFACISFCHIWAVVPCIKSYLIEIQCISHIYSLCIRTFCNPLFAALGQVCSNIKVVLRREG |
| binds | caveolin-1 (protein, UniProt P49817 1-178) MSGGKYVDSEGHLYTVPIREQGNIYKPNNKAMADEVTEKQVYDAHTKEIDLVNRDPKHLNDDVVKIDFEDVIAEPEGTHSFDGIWKASFTTFTVTKYWFYRLLSTIFGIPMALIWGIYFAILSFLHIWAVVPCIKSFLIEIQCISRVYSIYVHTFCDPLFEAIGKIFSNIRISTQKEI |
